Like-named read-outs stand apart in the source and are kept apart here. These are yes or no findings as the source states them, for the method shown. In cells and extracts the contact can be indirect. Some results given as binding are weak or reduced against the parent protein; the word gives no strength. For some assays here: Tags and fused reporters may be left off the sequences shown.
T1: RUN and FYVE domain-containing protein 4 (RUFY4), full length, expressed in HEK293T cells (mouse) (UniProt Q3TYX8)
T1 sequence: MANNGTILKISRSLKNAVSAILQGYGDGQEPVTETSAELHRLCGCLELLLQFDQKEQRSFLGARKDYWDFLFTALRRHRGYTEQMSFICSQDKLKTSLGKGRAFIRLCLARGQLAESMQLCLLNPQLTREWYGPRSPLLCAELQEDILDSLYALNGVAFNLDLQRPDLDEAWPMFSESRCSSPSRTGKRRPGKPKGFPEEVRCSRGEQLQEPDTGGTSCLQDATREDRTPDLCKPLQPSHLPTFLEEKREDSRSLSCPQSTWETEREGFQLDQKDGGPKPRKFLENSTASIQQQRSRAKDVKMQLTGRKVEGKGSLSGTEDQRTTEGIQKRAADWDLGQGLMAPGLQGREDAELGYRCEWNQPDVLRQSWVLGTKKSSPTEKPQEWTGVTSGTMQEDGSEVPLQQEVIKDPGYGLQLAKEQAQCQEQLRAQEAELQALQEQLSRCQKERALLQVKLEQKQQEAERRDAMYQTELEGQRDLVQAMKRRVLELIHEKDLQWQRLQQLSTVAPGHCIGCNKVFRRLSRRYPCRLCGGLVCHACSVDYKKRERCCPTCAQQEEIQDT

Chains of the proteins cited; added tags and fusions are not shown.
UniProt P51150: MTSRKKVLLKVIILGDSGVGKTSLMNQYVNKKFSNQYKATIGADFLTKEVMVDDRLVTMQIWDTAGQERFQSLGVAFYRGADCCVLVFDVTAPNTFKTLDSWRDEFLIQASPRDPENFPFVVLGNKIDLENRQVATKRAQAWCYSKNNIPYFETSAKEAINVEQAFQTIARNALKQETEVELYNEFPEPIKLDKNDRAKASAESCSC

T2: Flag-RUFY4, transduced into mature osteoclasts (mouse) (UniProt Q3TYX8)
T2 sequence: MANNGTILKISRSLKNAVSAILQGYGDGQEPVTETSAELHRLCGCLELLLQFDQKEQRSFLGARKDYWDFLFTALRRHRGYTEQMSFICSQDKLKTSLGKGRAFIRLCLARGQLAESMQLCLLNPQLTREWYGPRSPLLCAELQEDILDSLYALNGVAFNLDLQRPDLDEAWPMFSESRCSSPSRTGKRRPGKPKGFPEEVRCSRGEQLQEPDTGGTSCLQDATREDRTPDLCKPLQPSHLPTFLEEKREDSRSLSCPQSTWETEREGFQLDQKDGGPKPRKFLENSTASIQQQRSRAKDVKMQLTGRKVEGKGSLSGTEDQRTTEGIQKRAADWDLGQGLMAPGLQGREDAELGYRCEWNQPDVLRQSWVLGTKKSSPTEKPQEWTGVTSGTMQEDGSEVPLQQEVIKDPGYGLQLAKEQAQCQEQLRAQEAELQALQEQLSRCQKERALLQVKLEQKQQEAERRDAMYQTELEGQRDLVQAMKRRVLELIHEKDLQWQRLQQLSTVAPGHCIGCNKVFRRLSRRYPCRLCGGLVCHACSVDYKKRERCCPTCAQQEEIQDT

B1: RUN and FYVE domain-containing protein 4 (RUFY4), full length, expressed in HEK293T cells (protein, UniProt Q3TYX8-1 1-563)
chain: MANNGTILKISRSLKNAVSAILQGYGDGQEPVTETSAELHRLCGCLELLLQFDQKEQRSFLGARKDYWDFLFTALRRHRGYTEQMSFICSQDKLKTSLGKGRAFIRLCLARGQLAESMQLCLLNPQLTREWYGPRSPLLCAELQEDILDSLYALNGVAFNLDLQRPDLDEAWPMFSESRCSSPSRTGKRRPGKPKGFPEEVRCSRGEQLQEPDTGGTSCLQDATREDRTPDLCKPLQPSHLPTFLEEKREDSRSLSCPQSTWETEREGFQLDQKDGGPKPRKFLENSTASIQQQRSRAKDVKMQLTGRKVEGKGSLSGTEDQRTTEGIQKRAADWDLGQGLMAPGLQGREDAELGYRCEWNQPDVLRQSWVLGTKKSSPTEKPQEWTGVTSGTMQEDGSEVPLQQEVIKDPGYGLQLAKEQAQCQEQLRAQEAELQALQEQLSRCQKERALLQVKLEQKQQEAERRDAMYQTELEGQRDLVQAMKRRVLELIHEKDLQWQRLQQLSTVAPGHCIGCNKVFRRLSRRYPCRLCGGLVCHACSVDYKKRERCCPTCAQQEEIQDT
B2: LAMP2, expressed in HEK293T cells (protein, UniProt P17047 26-415)
chain: LIVNLTDSKGTCLYAEWEMNFTITYETTNQTNKTITIAVPDKATHDGSSCGDDRNSAKIMIQFGFAVSWAVNFTKEASHYSIHDIVLSYNTSDSTVFPGAVAKGVHTVKNPENFKVPLDVIFKCNSVLTYNLTPVVQKYWGIHLQAFVQNGTVSKNEQVCEEDQTPTTVAPIIHTTAPSTTTTLTPTSTPTPTPTPTPTVGNYSIRNGNTTCLLATMGLQLNITEEKVPFIFNINPATTNFTGSCQPQSAQLRLNNSQIKYLDFIFAVKNEKRFYLKEVNVYMYLANGSAFNISNKNLSFWDAPLGSSYMCNKEQVLSVSRAFQINTFNLKVQPFNVTKGQYSTAQDCSADEDNFLVPIAVGAALGGVLILVLLAYFIGLKRHHTGYEQF
B3: LAMP2, endogenous in mouse osteoclasts (protein, UniProt P17047 26-415)
chain: LIVNLTDSKGTCLYAEWEMNFTITYETTNQTNKTITIAVPDKATHDGSSCGDDRNSAKIMIQFGFAVSWAVNFTKEASHYSIHDIVLSYNTSDSTVFPGAVAKGVHTVKNPENFKVPLDVIFKCNSVLTYNLTPVVQKYWGIHLQAFVQNGTVSKNEQVCEEDQTPTTVAPIIHTTAPSTTTTLTPTSTPTPTPTPTPTVGNYSIRNGNTTCLLATMGLQLNITEEKVPFIFNINPATTNFTGSCQPQSAQLRLNNSQIKYLDFIFAVKNEKRFYLKEVNVYMYLANGSAFNISNKNLSFWDAPLGSSYMCNKEQVLSVSRAFQINTFNLKVQPFNVTKGQYSTAQDCSADEDNFLVPIAVGAALGGVLILVLLAYFIGLKRHHTGYEQF

Legend:
[1] = molecular target: T1, RUN and FYVE domain-containing protein 4 (RUFY4), full length, expressed in HEK293T cells (mouse); experiment: co-IP; HEK293T cells transfected to co-express the indicated proteins; lysed in RIPA buffer; lysates incubated with primary antibodies overnight, then protein A-agarose 1 h at 4 °C; immunoblot
[2] = molecular target: T2, Flag-RUFY4, transduced into mature osteoclasts (mouse); experiment: co-IP; mature wild-type mouse osteoclasts transduced with Flag-RUFY4; endogenous Rab7 and LAMP2 detected; RIPA lysate; immunoblot
[3] = molecular target: T1, RUN and FYVE domain-containing protein 4 (RUFY4), full length, expressed in HEK293T cells (mouse); experiment: co-IP; HEK293T cells transfected to co-express the indicated proteins; lysed in RIPA buffer; lysates incubated with primary antibodies overnight, then protein A-agarose 1 h at 4 °C; immunoblot; remark: listed apart in the source

Molecule | binding [2] | binding [3] | other results
CFP-Rab7, expressed in HEK293T cells (from UniProt P51150 1-207) |  |  | binding [1]: binds
Rab7, endogenous in mouse osteoclasts (from UniProt P51150 1-207) | binds |  | 
B1 |  | binds | 
B2 |  | binds | 
B3 | binds |  | 

— paper PMC11094054
